In the supplement of paper PMC10849652:
The list shows a part of the results. Residues, ends and D or L forms follow the SMILES beside them. *: point of attachment. Cbz = O=C(OCc1ccccc1)*

Amino acid sequences for entries named in this document (tags omitted). A change or cut given only in a name is not applied to a line headed by its entry.
UniProt Q86V85: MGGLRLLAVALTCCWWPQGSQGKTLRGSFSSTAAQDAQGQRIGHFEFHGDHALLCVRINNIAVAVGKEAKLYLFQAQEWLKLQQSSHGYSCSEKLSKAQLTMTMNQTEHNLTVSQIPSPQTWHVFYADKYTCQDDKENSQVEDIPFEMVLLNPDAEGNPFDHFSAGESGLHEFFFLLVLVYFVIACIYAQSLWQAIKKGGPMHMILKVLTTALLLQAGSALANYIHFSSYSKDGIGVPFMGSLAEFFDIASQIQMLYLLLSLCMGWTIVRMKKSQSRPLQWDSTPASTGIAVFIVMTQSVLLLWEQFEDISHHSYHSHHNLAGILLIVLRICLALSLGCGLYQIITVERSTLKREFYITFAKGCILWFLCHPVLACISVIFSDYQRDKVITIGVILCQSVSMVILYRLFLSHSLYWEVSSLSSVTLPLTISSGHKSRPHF
UniProt Q5T3I0: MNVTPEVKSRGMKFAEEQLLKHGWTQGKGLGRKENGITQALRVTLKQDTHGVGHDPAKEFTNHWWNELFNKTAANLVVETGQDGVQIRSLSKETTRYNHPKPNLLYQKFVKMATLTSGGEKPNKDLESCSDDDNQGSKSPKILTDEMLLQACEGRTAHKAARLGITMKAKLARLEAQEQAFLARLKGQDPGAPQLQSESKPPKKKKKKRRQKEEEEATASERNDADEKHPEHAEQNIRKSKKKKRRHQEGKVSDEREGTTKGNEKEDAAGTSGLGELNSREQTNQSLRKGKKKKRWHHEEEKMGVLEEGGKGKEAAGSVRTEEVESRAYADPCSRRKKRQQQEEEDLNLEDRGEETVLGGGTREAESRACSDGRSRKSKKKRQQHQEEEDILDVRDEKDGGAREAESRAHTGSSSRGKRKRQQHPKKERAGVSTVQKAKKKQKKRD
UniProt Q9Y2X7: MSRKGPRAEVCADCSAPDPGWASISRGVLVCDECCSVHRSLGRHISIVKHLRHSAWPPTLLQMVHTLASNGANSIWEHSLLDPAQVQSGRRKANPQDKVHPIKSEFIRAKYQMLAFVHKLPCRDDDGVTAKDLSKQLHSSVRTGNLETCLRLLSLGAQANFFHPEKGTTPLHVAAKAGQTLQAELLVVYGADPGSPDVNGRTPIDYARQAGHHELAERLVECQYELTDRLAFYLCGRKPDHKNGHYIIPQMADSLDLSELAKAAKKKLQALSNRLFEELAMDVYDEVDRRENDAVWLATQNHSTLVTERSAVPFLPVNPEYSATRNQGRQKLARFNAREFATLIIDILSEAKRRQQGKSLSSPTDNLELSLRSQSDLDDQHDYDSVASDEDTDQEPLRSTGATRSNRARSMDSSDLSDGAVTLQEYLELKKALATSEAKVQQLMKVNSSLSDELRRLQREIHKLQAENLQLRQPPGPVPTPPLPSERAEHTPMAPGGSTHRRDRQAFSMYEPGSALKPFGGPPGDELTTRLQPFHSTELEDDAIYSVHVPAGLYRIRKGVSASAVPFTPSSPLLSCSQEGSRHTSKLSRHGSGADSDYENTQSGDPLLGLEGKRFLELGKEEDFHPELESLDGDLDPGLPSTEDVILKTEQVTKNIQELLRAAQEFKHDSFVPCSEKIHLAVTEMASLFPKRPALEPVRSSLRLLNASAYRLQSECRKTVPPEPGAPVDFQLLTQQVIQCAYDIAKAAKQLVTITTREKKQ
UniProt Q8WWB7: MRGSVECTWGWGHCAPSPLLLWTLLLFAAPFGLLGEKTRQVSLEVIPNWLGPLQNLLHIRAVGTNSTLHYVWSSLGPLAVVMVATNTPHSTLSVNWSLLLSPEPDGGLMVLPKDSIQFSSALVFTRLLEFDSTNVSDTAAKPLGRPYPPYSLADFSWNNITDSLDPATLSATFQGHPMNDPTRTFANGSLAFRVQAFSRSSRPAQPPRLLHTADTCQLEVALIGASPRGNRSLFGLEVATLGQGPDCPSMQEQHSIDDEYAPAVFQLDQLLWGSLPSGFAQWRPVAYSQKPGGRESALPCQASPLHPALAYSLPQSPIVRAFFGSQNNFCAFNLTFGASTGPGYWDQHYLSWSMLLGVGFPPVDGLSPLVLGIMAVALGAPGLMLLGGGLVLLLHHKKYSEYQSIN
UniProt Q9HCN6: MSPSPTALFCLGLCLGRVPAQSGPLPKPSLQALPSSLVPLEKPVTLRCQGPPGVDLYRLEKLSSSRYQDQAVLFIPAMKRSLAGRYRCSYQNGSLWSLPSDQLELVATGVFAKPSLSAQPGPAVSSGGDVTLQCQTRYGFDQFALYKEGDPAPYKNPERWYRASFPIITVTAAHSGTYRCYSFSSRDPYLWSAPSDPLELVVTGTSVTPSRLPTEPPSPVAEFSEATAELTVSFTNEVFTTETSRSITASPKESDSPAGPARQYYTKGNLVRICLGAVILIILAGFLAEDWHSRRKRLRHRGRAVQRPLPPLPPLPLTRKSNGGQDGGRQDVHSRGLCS
UniProt Q9BQQ3: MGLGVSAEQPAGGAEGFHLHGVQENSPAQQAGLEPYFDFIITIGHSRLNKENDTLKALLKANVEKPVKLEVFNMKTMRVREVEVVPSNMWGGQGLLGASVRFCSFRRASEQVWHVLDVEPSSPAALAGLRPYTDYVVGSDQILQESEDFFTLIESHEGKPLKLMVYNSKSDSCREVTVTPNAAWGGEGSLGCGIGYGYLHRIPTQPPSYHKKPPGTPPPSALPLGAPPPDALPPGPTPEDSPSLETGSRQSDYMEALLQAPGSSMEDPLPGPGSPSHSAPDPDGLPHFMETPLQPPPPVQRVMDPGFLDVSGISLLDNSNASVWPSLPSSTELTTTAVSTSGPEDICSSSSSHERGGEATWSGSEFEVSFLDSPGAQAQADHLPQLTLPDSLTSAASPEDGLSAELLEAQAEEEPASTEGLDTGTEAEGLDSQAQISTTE
UniProt Q3T8J9: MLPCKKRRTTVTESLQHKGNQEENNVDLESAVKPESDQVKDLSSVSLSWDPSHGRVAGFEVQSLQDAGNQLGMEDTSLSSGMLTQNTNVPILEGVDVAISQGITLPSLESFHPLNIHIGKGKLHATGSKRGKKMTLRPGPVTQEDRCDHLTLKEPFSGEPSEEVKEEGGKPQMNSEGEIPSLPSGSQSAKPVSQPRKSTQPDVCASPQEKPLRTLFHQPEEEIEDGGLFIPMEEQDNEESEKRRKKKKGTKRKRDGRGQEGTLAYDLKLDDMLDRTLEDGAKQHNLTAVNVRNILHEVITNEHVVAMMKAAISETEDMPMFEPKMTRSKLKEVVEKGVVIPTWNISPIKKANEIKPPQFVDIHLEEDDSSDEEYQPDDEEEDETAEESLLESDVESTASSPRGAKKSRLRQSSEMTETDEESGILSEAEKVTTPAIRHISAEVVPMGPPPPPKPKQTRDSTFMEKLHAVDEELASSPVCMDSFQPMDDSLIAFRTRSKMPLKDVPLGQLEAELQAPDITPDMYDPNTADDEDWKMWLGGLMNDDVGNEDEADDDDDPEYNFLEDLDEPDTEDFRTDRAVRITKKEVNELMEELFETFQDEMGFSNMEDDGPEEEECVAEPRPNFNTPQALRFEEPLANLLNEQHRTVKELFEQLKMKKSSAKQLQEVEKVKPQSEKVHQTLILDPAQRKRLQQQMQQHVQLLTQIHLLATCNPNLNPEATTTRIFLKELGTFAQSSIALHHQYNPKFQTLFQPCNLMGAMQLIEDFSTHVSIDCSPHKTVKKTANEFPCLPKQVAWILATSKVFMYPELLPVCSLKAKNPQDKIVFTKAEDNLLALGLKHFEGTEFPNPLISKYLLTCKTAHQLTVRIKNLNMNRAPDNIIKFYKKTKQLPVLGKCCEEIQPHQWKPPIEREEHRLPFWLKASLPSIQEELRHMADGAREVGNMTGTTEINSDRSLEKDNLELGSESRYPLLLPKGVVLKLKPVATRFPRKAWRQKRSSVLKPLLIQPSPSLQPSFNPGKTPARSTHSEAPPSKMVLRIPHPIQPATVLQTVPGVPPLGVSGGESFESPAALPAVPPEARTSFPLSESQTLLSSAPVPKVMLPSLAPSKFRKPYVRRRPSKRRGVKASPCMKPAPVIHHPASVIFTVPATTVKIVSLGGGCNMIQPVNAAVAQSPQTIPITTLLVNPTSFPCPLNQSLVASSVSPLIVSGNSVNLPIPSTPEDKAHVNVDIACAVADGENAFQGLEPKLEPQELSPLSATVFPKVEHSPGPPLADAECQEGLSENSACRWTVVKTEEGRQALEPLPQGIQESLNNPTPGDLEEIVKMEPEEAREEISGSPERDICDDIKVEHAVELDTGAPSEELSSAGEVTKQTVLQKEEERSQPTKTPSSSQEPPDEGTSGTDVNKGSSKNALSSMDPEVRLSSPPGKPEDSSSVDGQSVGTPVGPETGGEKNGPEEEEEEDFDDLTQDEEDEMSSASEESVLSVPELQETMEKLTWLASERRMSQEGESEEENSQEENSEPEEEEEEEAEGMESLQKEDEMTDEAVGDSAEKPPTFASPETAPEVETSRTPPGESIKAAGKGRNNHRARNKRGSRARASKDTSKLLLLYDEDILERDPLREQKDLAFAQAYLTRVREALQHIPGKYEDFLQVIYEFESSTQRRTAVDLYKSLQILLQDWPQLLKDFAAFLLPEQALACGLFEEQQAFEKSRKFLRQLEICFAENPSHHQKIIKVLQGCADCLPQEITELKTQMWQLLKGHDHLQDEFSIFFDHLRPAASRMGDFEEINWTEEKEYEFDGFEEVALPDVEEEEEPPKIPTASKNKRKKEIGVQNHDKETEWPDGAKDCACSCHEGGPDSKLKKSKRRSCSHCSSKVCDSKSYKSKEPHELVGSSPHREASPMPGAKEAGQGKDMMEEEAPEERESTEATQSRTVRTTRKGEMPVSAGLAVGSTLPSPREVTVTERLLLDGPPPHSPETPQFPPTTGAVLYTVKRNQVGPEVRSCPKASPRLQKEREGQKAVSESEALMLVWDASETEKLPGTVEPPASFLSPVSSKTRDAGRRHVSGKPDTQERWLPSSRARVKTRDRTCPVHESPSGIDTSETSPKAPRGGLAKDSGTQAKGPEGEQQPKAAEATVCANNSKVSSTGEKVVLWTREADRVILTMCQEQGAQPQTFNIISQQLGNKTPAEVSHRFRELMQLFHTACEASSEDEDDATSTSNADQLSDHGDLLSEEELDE
UniProt Q9BRR8: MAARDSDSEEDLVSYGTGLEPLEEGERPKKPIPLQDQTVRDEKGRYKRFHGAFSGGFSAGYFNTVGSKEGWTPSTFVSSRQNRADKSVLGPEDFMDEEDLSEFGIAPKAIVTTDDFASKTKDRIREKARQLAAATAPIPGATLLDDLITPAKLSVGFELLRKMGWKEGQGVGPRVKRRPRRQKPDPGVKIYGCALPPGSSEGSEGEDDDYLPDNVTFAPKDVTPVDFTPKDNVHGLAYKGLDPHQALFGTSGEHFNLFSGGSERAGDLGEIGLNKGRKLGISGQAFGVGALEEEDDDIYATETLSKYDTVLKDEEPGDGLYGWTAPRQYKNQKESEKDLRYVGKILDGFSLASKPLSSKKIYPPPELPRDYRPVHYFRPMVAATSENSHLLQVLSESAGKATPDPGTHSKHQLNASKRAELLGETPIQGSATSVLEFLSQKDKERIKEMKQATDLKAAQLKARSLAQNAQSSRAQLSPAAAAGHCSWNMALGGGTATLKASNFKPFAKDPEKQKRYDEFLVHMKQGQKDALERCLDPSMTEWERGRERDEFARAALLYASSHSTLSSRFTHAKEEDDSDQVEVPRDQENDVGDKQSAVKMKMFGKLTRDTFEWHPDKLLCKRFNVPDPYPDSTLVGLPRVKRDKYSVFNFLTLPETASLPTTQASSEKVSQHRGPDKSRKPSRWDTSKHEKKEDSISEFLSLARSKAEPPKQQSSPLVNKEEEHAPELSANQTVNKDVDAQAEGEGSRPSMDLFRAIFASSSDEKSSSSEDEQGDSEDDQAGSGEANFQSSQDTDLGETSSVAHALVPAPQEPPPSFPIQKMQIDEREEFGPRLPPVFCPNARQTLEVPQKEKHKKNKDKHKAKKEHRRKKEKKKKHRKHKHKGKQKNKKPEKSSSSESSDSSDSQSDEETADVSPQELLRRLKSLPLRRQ
UniProt O60443: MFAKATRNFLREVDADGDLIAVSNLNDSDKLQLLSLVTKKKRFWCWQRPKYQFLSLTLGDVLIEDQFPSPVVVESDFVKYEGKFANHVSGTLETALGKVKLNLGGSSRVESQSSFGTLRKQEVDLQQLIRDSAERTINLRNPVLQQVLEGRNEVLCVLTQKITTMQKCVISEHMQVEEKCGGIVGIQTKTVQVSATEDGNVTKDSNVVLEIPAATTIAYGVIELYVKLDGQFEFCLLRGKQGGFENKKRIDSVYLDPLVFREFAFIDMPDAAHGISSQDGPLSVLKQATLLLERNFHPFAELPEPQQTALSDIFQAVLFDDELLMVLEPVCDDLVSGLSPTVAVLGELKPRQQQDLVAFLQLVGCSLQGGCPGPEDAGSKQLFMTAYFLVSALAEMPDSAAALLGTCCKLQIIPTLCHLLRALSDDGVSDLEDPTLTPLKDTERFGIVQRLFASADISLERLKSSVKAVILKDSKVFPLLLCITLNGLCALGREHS

Experiments:
Experiment in all cases: log2 fold change, soluble protein after heating vs DMSO (PISA); higher = thermal stabilisation; K562 cells, 10 uM, 30 min; active = over 0.2 and 3.5 SD of the protein, either way, in both replicates (recomputed)
[1] = compound: C/C(=N\NC(=O)C1=CC(=CC=C1)S(=O)(=O)N2CCOCC2)/C3=C(C=CC(=C3)Cl)O
Method in brief: (§1)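 K562 cells at 2×10^6 cells/mL were treated with 10 μM compound for 30 min. Aliquots were heated for 3 min across 48°C-58°C, pooled, and extracted in PBS with 0.5% NP-40 at 4°C; soluble protein was the supernatant after 21,000xg for 90 min. Soluble protein was quantified by TMTpro 16plex LC-MS/MS with channel sums equalised, and reported as log2 fold change in thermal stability against DMSO controls, with values from duplicates.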

[2] = compound: C1=CC2=C(C=CC(=C2)/C=C\3/C(=O)NC(=NCC4=CC=CS4)S3)N=C1
Method in brief: as §1

[3] = compound: C1=CC=C2C(=C1)C3=NNC4=CC=CC(=C43)C2=O
Method in brief: as §1

[4] = compound: CC(=O)c1cnc2ccc(-c3cc(Cl)c(O)c(Cl)c3)nc2c1N[C@H]1CC[C@H](CN(C)C)CC1
Method in brief: as §1

[5] = compound: CC1=C(C(CC(=O)N1)C2=CC=C(C=C2)C(F)(F)F)C(=O)NC3=C(C=C4C(=C3)C=NN4)F
Method in brief: as §1

erlotinib = compound: C#Cc1cccc(Nc2ncnc3cc(OCCOC)c(OCCOC)cc23)c1 [erlotinib]
Method in brief: as §1

[6] = compound: C1=CC(=CC=C1C2=NC3=C(N2)C=C(C=C3)C(=O)N)OC4=CC=C(C=C4)Cl
Method in brief: as §1

[7] = compound: C1=CC2=NC=CN=C2C=C1/C=C/3\C(=O)NC(=O)S3
Method in brief: as §1

[8] = compound: C1=CC=C(C=C1)C2=NC(=C(N2)C3=CC=NC=C3)C4=CC(=C(C=C4)Cl)O
Method in brief: as §1

[9] = compound: C1CCN(C1)C(=O)NC2=CC=CC(=C2)NC3=NC=C(C(=N3)NCCC4=CN=CN4)Br
Method in brief: as §1

[10] = compound: C1CN(CCC1(CC2=CC=C(C=C2)Cl)N)C3=NC=NC4=C3C=CN4
Method in brief: as §1

ibrutinib = compound: C=CC(=O)N1CCC[C@@H](n2nc(-c3ccc(Oc4ccccc4)cc3)c3c(N)ncnc32)C1 [ibrutinib]
Method in brief: as §1

ralimetinib = compound: CC(C)(C)Cn1c(N)nc2ccc(-c3[nH]c(C(C)(C)C)nc3-c3ccc(F)cc3)nc21 [ralimetinib]
Method in brief: as §1

[11] = compound: CC(C)C1=C2N=C(C=C(N2N=C1)NCC3=CC=CC=C3)NCCCCCCN
Method in brief: as §1

[12] = compound: CC(C)C[C@@H](C=O)NC(=O)[C@H](CC(C)C)NC(=O)[C@H](CC(C)C)NC(=O)OCc1ccccc1
Method in brief: as §1

[13] = compound: CC1=C(C2=C(C=C1)C(=O)C3=CC=CC=C3N2CCCN)C
Method in brief: as §1

IRAK-1-4 Inhibitor I = compound: C1COCCN1CCN2C3=CC=CC=C3N=C2NC(=O)C4=CC(=CC=C4)[N+](=O)[O-] [IRAK-1-4 Inhibitor I]
Method in brief: as §1

pinometostat = compound: CC(C)N(C[C@H]1O[C@@H](n2cnc3c(N)ncnc32)[C@H](O)[C@@H]1O)[C@H]1C[C@@H](CCc2nc3cc(C(C)(C)C)ccc3[nH]2)C1 [pinometostat]
Method in brief: as §1

[14] = compound: C1=CC(=C(C=C1Cl)C2=NC3=NC=CN=C3C(=N2)NC4=CC=NC=C4)F
Method in brief: as §1

[15] = compound: CC(C)(O)CC(=O)NCCn1ccc2ncnc(Nc3ccc(Oc4cccc(C(F)(F)F)c4)c(Cl)c3)c21
Method in brief: as §1

Measured: log2 fold change

GPSM3 (UniProt Q9Y4H4)
inactive: [1] -0.048 | [2] 0.118 | [3] 0.137 | [4] -0.029 | [5] -0.062

GORAB (UniProt Q5T7V8)
inactive: erlotinib 0.068 | [6] -0.122 | [7] 0.039 | [8] -0.092 | [9] 0.069 | [10] 0.028 | ibrutinib -0.241 | ralimetinib -0.208 | [11] -0.111 | [12] -0.222 | [5] 0.173 | [13] 0.143

GPS1 (UniProt A8K070)
inactive: erlotinib 0.084 | [6] 0.02 | [7] 0.057 | [8] -0.008 | IRAK-1-4 Inhibitor I 0.007 | ibrutinib 0.007 | ralimetinib -0.039 | [11] 0.014 | [12] 0.132 | pinometostat -0.037 | [5] -0.026

GPR180 (UniProt Q86V85)
inactive: [1] 0.155 | [14] -0.094 | [2] 0.068 | [7] -0.34 | [3] -0.055 | [9] -0.014 | [10] -0.01 | ibrutinib -0.534 | [4] -0.134 | [15] -0.07 | [13] 0.113

GPATCH4 isoform 3 (UniProt Q5T3I0)
inactive: [14] -0.219 | [7] -0.223 | [8] 0.057 | [9] -0.13 | [10] -0.134 | IRAK-1-4 Inhibitor I -0.179 | ibrutinib 0.016 | ralimetinib 0.04 | [15] 0.093 | [12] 0.211 | pinometostat 0.242 | [13] -0.036

GIT1 isoform 3 (UniProt Q9Y2X7)
inactive: [1] -0.086 | [14] -0.205 | [2] 0.233 | [8] -0.26 | [3] 0.03 | IRAK-1-4 Inhibitor I -0.113 | [4] -0.083 | ralimetinib -0.161 | [15] -0.218 | [12] 0.034 | pinometostat 0.204

GPS2 (UniProt Q13227)
inactive: erlotinib -0.124 | [14] 0.066 | [6] -0.046 | [7] 0.05 | [8] -0.046 | [9] 0.262 | [10] 0.029 | IRAK-1-4 Inhibitor I -0.013 | ibrutinib -0.006 | ralimetinib -0.19 | [15] -0.052 | [11] 0.027 | [12] -0.069 | pinometostat 0.019 | [13] -0.135

GNL2 (UniProt Q13823)
inactive: [14] -0.457 | [7] -0.11 | [8] 0.016 | [9] 0.003 | [10] -0.092 | ibrutinib 0.297 | ralimetinib -0.003 | [15] 0.092 | [12] 0.055 | [13] -0.009

GOLM1 (UniProt Q8NBJ4)
inactive: erlotinib -0.189 | [6] 0.181 | [7] -0.169 | [8] -0.067 | [9] 0.048 | [10] -0.158 | ibrutinib 0.027 | ralimetinib -0.111 | [11] 0.087 | [12] 0.122 | [5] 0.102 | [13] -0.13

GLMP (UniProt Q8WWB7)
inactive: [1] 0.002 | [14] -0.034 | [2] 0.076 | [8] 0.051 | [3] 0.054 | [9] -0.004 | [10] 0.058 | IRAK-1-4 Inhibitor I 0.062 | [4] -0.037 | ralimetinib -0.081 | [15] -0.03 | [12] 0.131 | pinometostat -0.104 | [5] 0.005 | [13] 0.025

GP6 isoform 3 (UniProt Q9HCN6)
inactive: erlotinib 0.112 | [6] 0.024 | [7] 0.204 | IRAK-1-4 Inhibitor I 0.135 | ibrutinib 0.166 | [11] -0.14 | pinometostat -0.176

GORASP1 (UniProt Q9BQQ3)
inactive: [14] -0.264 | [15] 0

GON4L (UniProt Q3T8J9)
inactive: [1] -0.216 | [14] 0.072 | [2] 0.221 | [7] 0.028 | [3] -0.035 | [9] -0.066 | [10] -0.042 | IRAK-1-4 Inhibitor I 0.07 | ibrutinib 0.134 | [4] 0.208 | [15] -0.172 | pinometostat -0.022 | [5] -0.015 | [13] 0.056

GPATCH1 (UniProt Q9BRR8)
inactive: erlotinib 0.053 | [14] -0.025 | [6] 0.185 | [9] 0.022 | [10] 0.13 | [15] -0.041 | [11] -0.101 | [13] 0.058

GNL3 (UniProt Q9BVP2)
inactive: [14] 0.165 | [2] 0.149 | [7] -0.054 | [3] 0.053 | [9] -0.048 | [10] 0.142 | ibrutinib 0.047 | [4] 0.012 | [15] -0.007 | [13] 0.066
active: [1] -0.562

GSDME (UniProt O60443)
inactive: erlotinib 0.09 | [14] 0.131 | [6] 0.042 | [15] 0.046 | [11] -0.187
